The values below come from article PMC3463608.

No constants are given. Whether binding was seen depends on the method and setting. Some binding calls cover weakened binding; strength is not graded here. Where a sequence is shown, tags or fusion partners need not be part of it.

This assay addresses T1, His-tagged Chs5p (S. cerevisiae) (UniProt Q12114).
T1 sequence: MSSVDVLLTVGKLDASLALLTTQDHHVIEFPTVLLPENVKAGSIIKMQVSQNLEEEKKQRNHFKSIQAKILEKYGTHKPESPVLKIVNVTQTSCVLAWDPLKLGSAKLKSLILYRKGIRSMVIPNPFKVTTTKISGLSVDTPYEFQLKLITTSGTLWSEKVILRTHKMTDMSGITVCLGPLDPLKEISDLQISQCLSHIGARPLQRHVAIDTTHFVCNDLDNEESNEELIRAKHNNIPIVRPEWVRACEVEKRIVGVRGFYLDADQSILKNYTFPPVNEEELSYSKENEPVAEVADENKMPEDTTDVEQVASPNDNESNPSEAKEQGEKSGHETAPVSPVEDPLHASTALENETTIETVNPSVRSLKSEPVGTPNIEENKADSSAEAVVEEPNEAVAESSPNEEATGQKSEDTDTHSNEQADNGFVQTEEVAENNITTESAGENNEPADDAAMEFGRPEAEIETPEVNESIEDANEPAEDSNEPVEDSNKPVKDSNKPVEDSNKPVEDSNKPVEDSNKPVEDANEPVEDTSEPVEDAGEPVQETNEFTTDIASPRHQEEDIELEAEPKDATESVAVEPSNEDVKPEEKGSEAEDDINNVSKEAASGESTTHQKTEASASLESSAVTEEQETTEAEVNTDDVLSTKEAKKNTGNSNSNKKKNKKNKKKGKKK
Put plainly: pull-down; His-Chs5p alone immobilized on Ni-NTA beads, incubated with 150 ug/ml purified GST-Chs3 fragments at RT for 30 min; SDS-PAGE and Coomassie staining; data not shown; both purified.

B1: GST-Chs3 (1–170), full N-terminal cytosolic tail of Chs3p (domain or fragment, UniProt P29465 1-170)
chain: MTGLNGDDPDDYYLNLNQDEESLLRSRHSVGSGAPHRQGSLVRPERSRLNNPDNPHFYYAQKTQEQMNHLDVLPSSTGVNPNATRRSGSLRSKGSVRSKFSGRETDSYLLQDMNTTDKKASVKISDEGVAEDEFDKDGDVDNFEESSTQPINKSIKPLRKETNDTLSFWQ
Turning to B1, the binding result is reported as “binds”.
